Data as given in PubChem BioAssay AID1259308 (NCATS, 2017)

Purpose: 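Knock-downs that increase output of a recombinant reporter protein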 (primary screen)
System: human HEK293 embryonic kidney cells stably expressing firefly luciferase (HEK-CMV-Luc2-Hygro)
Reagents: single siRNA against human genes, 0.8 pmol siRNA per well
Duration: 72 h
Measured: 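Reporter luminescence and viable-cell signal on separate replicate plates, given as percent of non-targeting control and median/MAD z-scores, plus per-cell luciferase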
Scale: total luciferase, z-score and total luciferase, % of control: higher = more reporter protein produced; luciferase per cell, z-score: higher = more reporter output per viable cell; viable cells, % of control: higher = more viable cells
Hit rule: 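Active when the median/MAD z-score for overall luciferase is greater than 3; a gene was taken forward for validation with new siRNAs if at least two of its three siRNAs passed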
Meaning of the calls: active = raised luciferase; inactive = no rise
This is one part, drawn at random, of about 59,000 deposited reagents. In the full data, about 1,510 (2.6%) are marked active. 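Calls use total luciferase alone and ignore viability, so some active siRNAs may act by altering cell number.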 Reagents against one gene are numbered here.

| Target gene | reagent no. | total luciferase, z-score | total luciferase, % of control | luciferase per cell, z-score | viable cells, % of control | activity call |
| --- | --- | --- | --- | --- | --- | --- |
| DEFB105A (defensin beta 105A) | 1 | -0.344 | 75 | 0.0325 | 83.1 | inactive |
| DEFB105A (defensin beta 105A) | 2 | -1.56 | 50.9 | 1.24 | 41 | inactive |
| DEFB105A (defensin beta 105A) | 3 | -0.639 | 69.2 | -0.0851 | 79.1 | inactive |
| TOR3A (torsin family 3 member A) | 1 | 0.424 | 90.3 | 0.712 | 83.7 | inactive |
| TOR3A (torsin family 3 member A) | 2 | 0.165 | 85.2 | 0.171 | 91 | inactive |
| TOR3A (torsin family 3 member A) | 3 | -0.752 | 66.9 | -0.405 | 83.2 | inactive |
| LY6S-AS1 (LY6S antisense RNA 1) | 1 | 0.206 | 86 | 0.49 | 84.5 | inactive |
| LY6S-AS1 (LY6S antisense RNA 1) | 2 | 0.914 | 100 | 0.955 | 87 | inactive |
| LY6S-AS1 (LY6S antisense RNA 1) | 3 | -0.329 | 75.3 | 0.112 | 81.7 | inactive |
| TCL1B (TCL1 family AKT coactivator B) | 1 | 1.04 | 103 | 0.148 | 110 | inactive |
| TCL1B (TCL1 family AKT coactivator B) | 2 | -1.3 | 56.1 | -1.45 | 91.9 | inactive |
| TCL1B (TCL1 family AKT coactivator B) | 3 | 0.267 | 87.2 | 0.45 | 86.6 | inactive |
| IP6K2 (inositol hexakisphosphate kinase 2) | 1 | -1.6 | 50.2 | -1.41 | 81.3 | inactive |
| IP6K2 (inositol hexakisphosphate kinase 2) | 2 | -0.512 | 71.7 | -0.843 | 100 | inactive |
| IP6K2 (inositol hexakisphosphate kinase 2) | 3 | 0.634 | 94.5 | 0.674 | 88.4 | inactive |
| TCTN2 (tectonic family member 2) | 1 | 1.08 | 103 | 1.08 | 87 | inactive |
| TCTN2 (tectonic family member 2) | 2 | -0.226 | 77.4 | -0.000148 | 86.5 | inactive |
| TCTN2 (tectonic family member 2) | 3 | 0.0643 | 83.2 | 0.0406 | 91.9 | inactive |
| SEL1L (SEL1L adaptor subunit of SYVN1 ubiquitin ligase) | 1 | -1.8 | 46.1 | -2.37 | 96.1 | inactive |
| SEL1L (SEL1L adaptor subunit of SYVN1 ubiquitin ligase) | 2 | -0.97 | 62.6 | -1.31 | 98.9 | inactive |
| SEL1L (SEL1L adaptor subunit of SYVN1 ubiquitin ligase) | 3 | -0.603 | 69.9 | -0.891 | 98.8 | inactive |
| NT5C (5', 3'-nucleotidase, cytosolic) | 1 | 0.209 | 86 | -0.351 | 105 | inactive |
| NT5C (5', 3'-nucleotidase, cytosolic) | 2 | 1.89 | 120 | 2.18 | 75.2 | inactive |
| NT5C (5', 3'-nucleotidase, cytosolic) | 3 | 0.158 | 85 | 0.144 | 91.5 | inactive |
| NUDT5 (nudix hydrolase 5) | 1 | 2 | 122 | 1.96 | 81.2 | inactive |
| NUDT5 (nudix hydrolase 5) | 2 | 1.1 | 104 | -0.362 | 128 | inactive |
| NUDT5 (nudix hydrolase 5) | 3 | -0.0604 | 80.7 | -0.223 | 95.6 | inactive |
| PLXND1 (plexin D1) | 1 | -1.16 | 58.7 | -1.17 | 89.4 | inactive |
| PLXND1 (plexin D1) | 2 | 1.81 | 118 | 1.05 | 99.9 | inactive |
| PLXND1 (plexin D1) | 3 | -0.0843 | 80.2 | -0.5 | 102 | inactive |
| MACROD1 (mono-ADP ribosylhydrolase 1) | 1 | 1.31 | 108 | 0.858 | 96.3 | inactive |
| MACROD1 (mono-ADP ribosylhydrolase 1) | 2 | 1.31 | 108 | 0.733 | 99.4 | inactive |
| MACROD1 (mono-ADP ribosylhydrolase 1) | 3 | 3.47 | 151 | 2.44 | 88.6 | active |
| PNPT1 (polyribonucleotide nucleotidyltransferase 1) | 1 | 0.0423 | 82.7 | 0.0929 | 90.2 | inactive |
| PNPT1 (polyribonucleotide nucleotidyltransferase 1) | 2 | -0.257 | 76.8 | 0.139 | 82.7 | inactive |
| PNPT1 (polyribonucleotide nucleotidyltransferase 1) | 3 | -0.871 | 64.6 | -0.309 | 78.3 | inactive |
| TFAP2D (transcription factor AP-2 delta) | 1 | 0.343 | 88.7 | 0.516 | 86.5 | inactive |
| TFAP2D (transcription factor AP-2 delta) | 2 | -0.502 | 71.9 | -0.936 | 103 | inactive |
| TFAP2D (transcription factor AP-2 delta) | 3 | -0.422 | 73.5 | -0.399 | 91.2 | inactive |
| EEF1AKMT3 (EEF1A lysine methyltransferase 3) | 1 | -0.301 | 75.9 | -0.705 | 102 | inactive |
| EEF1AKMT3 (EEF1A lysine methyltransferase 3) | 2 | 3.68 | 155 | 1.99 | 103 | active |
| EEF1AKMT3 (EEF1A lysine methyltransferase 3) | 3 | 0.0786 | 83.4 | -0.153 | 97.1 | inactive |
| WT1-AS (WT1 antisense RNA) | 1 | -1.97 | 42.6 | -2.11 | 83 | inactive |
| WT1-AS (WT1 antisense RNA) | 2 | 1 | 102 | 0.362 | 103 | inactive |
| WT1-AS (WT1 antisense RNA) | 3 | 0.352 | 88.9 | -0.107 | 102 | inactive |
| PLXNB1 (plexin B1) | 1 | 0.249 | 86.8 | -0.473 | 110 | inactive |
| PLXNB1 (plexin B1) | 2 | -2.36 | 35 | -0.384 | 43.3 | inactive |
| PLXNB1 (plexin B1) | 3 | -0.355 | 74.8 | 0.182 | 79.7 | inactive |
| MPP4 (MAGUK p55 scaffold protein 4) | 1 | -0.385 | 74.2 | -0.592 | 96.9 | inactive |
| MPP4 (MAGUK p55 scaffold protein 4) | 2 | 0.231 | 86.5 | 0.0386 | 95.7 | inactive |
| MPP4 (MAGUK p55 scaffold protein 4) | 3 | 0.105 | 84 | -0.0708 | 95.6 | inactive |
| P2RX2 (purinergic receptor P2X 2) | 1 | 0.288 | 87.6 | 0.11 | 95.1 | inactive |
| P2RX2 (purinergic receptor P2X 2) | 2 | -0.719 | 67.6 | -0.698 | 90.7 | inactive |
| P2RX2 (purinergic receptor P2X 2) | 3 | -0.0864 | 80.2 | -0.0176 | 90 | inactive |
| MYL4 (myosin light chain 4) | 1 | -0.163 | 78.6 | -0.0674 | 89.5 | inactive |
| MYL4 (myosin light chain 4) | 2 | -0.61 | 69.7 | -0.701 | 93.7 | inactive |
| MYL4 (myosin light chain 4) | 3 | 1.89 | 120 | 2.1 | 76.8 | inactive |
